Test results taken from article PMC12043515, “Stepwise neofunctionalization of the NF-κB family member Rel during vertebrate evolution”.

By UniProt entry, the sequences of proteins in these tests, tags left out. Residues count along the entry.
UniProt A0ACM8Q4Y4, entry or part of it: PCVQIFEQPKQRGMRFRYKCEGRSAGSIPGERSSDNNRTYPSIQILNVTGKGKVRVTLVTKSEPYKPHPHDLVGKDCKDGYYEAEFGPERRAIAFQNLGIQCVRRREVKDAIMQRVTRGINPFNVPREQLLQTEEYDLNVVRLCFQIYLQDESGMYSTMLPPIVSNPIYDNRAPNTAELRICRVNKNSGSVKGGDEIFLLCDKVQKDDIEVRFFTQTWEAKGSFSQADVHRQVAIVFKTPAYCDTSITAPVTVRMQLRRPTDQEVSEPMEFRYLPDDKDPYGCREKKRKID
UniProt Q04206, 19-306: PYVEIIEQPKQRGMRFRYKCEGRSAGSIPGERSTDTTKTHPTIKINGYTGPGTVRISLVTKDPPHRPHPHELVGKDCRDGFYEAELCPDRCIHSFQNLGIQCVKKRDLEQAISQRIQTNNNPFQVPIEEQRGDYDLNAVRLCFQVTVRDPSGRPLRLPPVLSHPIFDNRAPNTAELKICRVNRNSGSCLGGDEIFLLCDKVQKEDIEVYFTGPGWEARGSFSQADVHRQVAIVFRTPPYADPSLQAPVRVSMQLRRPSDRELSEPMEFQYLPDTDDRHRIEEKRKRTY

Assays:
Test in all cases: EMSA off-rate
[1] = target: T1, Rel RHR human (Homo sapiens) (UniProt Q04864); settings: much slower off-rate than human RelA; EMSA: 10 mM Tris-HCl pH 7.5, 150 mM NaCl, 1 mM DTT, 1 mM EDTA, 5% glycerol, 80 ng/ul dI-dC, 200 ng/ul BSA, 4 C; off-rate with 100-fold unlabeled consensus; protein in a lysate after overexpression; protein details: N-terminal Flag; label: 32P
T1 sequence (looked up, limits assumed): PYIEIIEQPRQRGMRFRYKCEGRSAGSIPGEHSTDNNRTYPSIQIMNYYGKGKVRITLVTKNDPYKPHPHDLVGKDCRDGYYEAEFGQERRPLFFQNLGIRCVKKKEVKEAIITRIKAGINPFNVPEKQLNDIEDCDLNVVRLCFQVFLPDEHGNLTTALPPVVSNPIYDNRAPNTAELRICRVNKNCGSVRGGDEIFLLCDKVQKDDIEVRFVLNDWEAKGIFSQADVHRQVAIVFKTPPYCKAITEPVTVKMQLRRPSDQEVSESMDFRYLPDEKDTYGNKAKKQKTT

[2] = target: Rel RHR zebrafish (zebrafish) (UniProt A0ACM8Q4Y4); settings: comparable to zebrafish RelA; EMSA: 10 mM Tris-HCl pH 7.5, 150 mM NaCl, 1 mM DTT, 1 mM EDTA, 5% glycerol, 80 ng/ul dI-dC, 200 ng/ul BSA, 4 C; off-rate with 100-fold unlabeled consensus; protein in a lysate after overexpression; protein details: N-terminal Flag; label: 32P
Rel RHR frog (frog) = settings: slower off-rate than frog RelA; EMSA: 10 mM Tris-HCl pH 7.5, 150 mM NaCl, 1 mM DTT, 1 mM EDTA, 5% glycerol, 80 ng/ul dI-dC, 200 ng/ul BSA, 4 C; off-rate with 100-fold unlabeled consensus; protein in a lysate after overexpression; protein details: N-terminal Flag; label: 32P
[3] = target: RelA RHR human (Homo sapiens) (UniProt Q04206); settings: faster off-rate than human Rel; EMSA: 10 mM Tris-HCl pH 7.5, 150 mM NaCl, 1 mM DTT, 1 mM EDTA, 5% glycerol, 80 ng/ul dI-dC, 200 ng/ul BSA, 4 C; off-rate with 100-fold unlabeled consensus; protein in a lysate after overexpression; protein details: N-terminal Flag; label: 32P
[4] = system: Rel RHR elephant shark (elephant shark); settings: comparable to elephant shark RelA; EMSA: 10 mM Tris-HCl pH 7.5, 150 mM NaCl, 1 mM DTT, 1 mM EDTA, 5% glycerol, 80 ng/ul dI-dC, 200 ng/ul BSA, 4 C; off-rate with 100-fold unlabeled consensus; protein in a lysate after overexpression; protein details: N-terminal Flag; label: 32P
RelA RHR frog (frog) = settings: faster off-rate than frog Rel; EMSA: 10 mM Tris-HCl pH 7.5, 150 mM NaCl, 1 mM DTT, 1 mM EDTA, 5% glycerol, 80 ng/ul dI-dC, 200 ng/ul BSA, 4 C; off-rate with 100-fold unlabeled consensus; protein in a lysate after overexpression; protein details: N-terminal Flag; label: 32P

Sequence: CCTAACATCAGGGAATTTCCTGATGTTAGG (double strand) [consensus NF-κB]
- binding result [1]: binds
- binding result [2]: binds
- binding result (Rel RHR frog (frog)): binds
- binding result [3]: binds more weakly
- binding result [4]: binds
- binding result (RelA RHR frog (frog)): binds more weakly

Construct, isoform or probe ends are uncertain for at least one entry. Results from cells or extracts need not show a direct contact. For part of these data: The comparison behind a weaker result is the experiment's own reference, which may not be listed here. For part of these data: Protein sequences can lack the tags named with them.
